Reference: patent publication US6399649B1, “Compositions and methods for the treatment of chronic lymphocytic leukemia” (Boston Medical Center Corporation, priority 1998, dated 2002)
At least one compound was matched to its structure with a doubt left.

Legend:
[1] = tested on: CLL cells; experiment: DNA ladder gel assay; format: cell-based, human; conditions: 72 hours; 10 uMol/L rolipram, 40 uMol/L forskolin
Experimental: 10 million purified CLL cells were harvested by centrifugation following exposure to drugs during a 72 hour tissue culture incubation. Cells were lysed in 0.5 mL of 20 mMol/L Tris (pH 7.4), 0.4 mMol/L EDTA, 0.25% Triton X. After 15 minutes of incubation at room temperature, nuclei were removed by centrifugation at 14,000 rpm (RCF=16,000). The supernatant was transferred to a new tube and soluble DNA precipitated overnight at −20° C. following the addition of […] of 5 Mol/L NaCl and […] of isopropanol. After centrifugation at 14000 rpm for 10 minutes, followed by a 70% ethanol wash, the pellet was resuspended in 20 uL of 10 mMol/L Tris (pH 8.0), 1 mMol/L EDTA, 0.1 mg/mL RNase and incubated at 37° C. for 30 minutes prior to electrophoresis on 1.6% TBE agarose gels. DNA fragments were visualized by UV light after staining the gels with ethidium bromide.
Consequently, a study of the activity of type 4-specific PDE inhibitors as inducers of cAMP-mediated apoptosis in leukemic cells from CLL patients was carried out. CLL cells were incubated for 72 hours either alone or with 10 uMol/L rolipram, 40 uMol/L forskolin or both agents. We tested whether rolipram induces intemucleosomal DNA fragmentation characteristic of apoptosis by isolating soluble DNA from the leukemic cells with detergent treatment, then removing DNA from intact non-apoptotic nuclei by centrifugation. […]

[2] = tested on: CLL cells; experiment: Hoechst 33342 apoptosis assay, CLL cells; format: cell-based, human
Experimental: Hoechst 33342 was dissolved in water and frozen at 33 mg/mL at −20° C. One million cells/well were incubated in duplicate or triplicate in 48 well tissue culture plates (Costar, Cambridge, Mass.) with or without drug treatment for […] in 1 mL of culture media. Cells were transferred to 12×75 mm polystyrene Falcon® 2054 FACS tubes (Becton Dickinson Labware, Lincoln Park, N.J.) and incubated for ten minutes at 37° C. with Hoechst 33342 at a final concentration of […]. 23 Cells were stored on ice until analysis on a FACS Vantage flow cytometer (Becton Dickinson, San Jose, Calif.). Hoechst 33342 dye fluorescence was excited with a UV laser and detected using a 450 bandpass filter; Data was analyzed using Cellquest software (Becton Dickinson, San Jose, Calif.).
As a more quantitative analysis of CLL apoptosis, we utilized a flow cytometry method in which apoptotic cells are distinguished both by their reduced size (FSC) and their increased uptake of the lipophilic UV fluorescent dye Hoechst 33342 (FL-4) when the intact, heterogeneous cell population is incubated with a low concentration of the dye (0.25 ug/mL) for 10 minutes at 37° C. […] The abcissa reflects forward light scatter and the ordinate Hoechst 33342 fluorescence. Apoptotic cells are characterized by reduced forward light scatter and increased Hoechst 33342 fluorescence. […]

Q: Which results are given for `C=C[C@@]1(C)CC(=O)[C@]2(O)[C@@]3(C)[C@@H](O)CCC(C)(C)[C@@H]3[C@H](O)[C@H](OC(C)=O)[C@@]2(C)O1` [forskolin]?
A: internucleosomal DNA fragmentation [1]: pronounced internucleosomal DNA fragmentation; apoptosis as single agent compared with rolipram alone ([2]; 40 uMol/L, seven rolipram-sensitive patients, p<0.08): induced less apoptosis than rolipram alone; CLL cell apoptosis ([2]; 72 hour culture, rolipram dose range with or without 40 uMol/L forskolin): moderate apoptosis
